For one substance, binding results are on record in PMC3034869.

By UniProt entry, the sequences of proteins in these tests, tags left out. Where a name states a change or a piece, a line headed by the entry shows the natural chain unless it says otherwise. Chains listed by the source or under a name are the forms on record and can include a tag or linker.
UniProt P02454: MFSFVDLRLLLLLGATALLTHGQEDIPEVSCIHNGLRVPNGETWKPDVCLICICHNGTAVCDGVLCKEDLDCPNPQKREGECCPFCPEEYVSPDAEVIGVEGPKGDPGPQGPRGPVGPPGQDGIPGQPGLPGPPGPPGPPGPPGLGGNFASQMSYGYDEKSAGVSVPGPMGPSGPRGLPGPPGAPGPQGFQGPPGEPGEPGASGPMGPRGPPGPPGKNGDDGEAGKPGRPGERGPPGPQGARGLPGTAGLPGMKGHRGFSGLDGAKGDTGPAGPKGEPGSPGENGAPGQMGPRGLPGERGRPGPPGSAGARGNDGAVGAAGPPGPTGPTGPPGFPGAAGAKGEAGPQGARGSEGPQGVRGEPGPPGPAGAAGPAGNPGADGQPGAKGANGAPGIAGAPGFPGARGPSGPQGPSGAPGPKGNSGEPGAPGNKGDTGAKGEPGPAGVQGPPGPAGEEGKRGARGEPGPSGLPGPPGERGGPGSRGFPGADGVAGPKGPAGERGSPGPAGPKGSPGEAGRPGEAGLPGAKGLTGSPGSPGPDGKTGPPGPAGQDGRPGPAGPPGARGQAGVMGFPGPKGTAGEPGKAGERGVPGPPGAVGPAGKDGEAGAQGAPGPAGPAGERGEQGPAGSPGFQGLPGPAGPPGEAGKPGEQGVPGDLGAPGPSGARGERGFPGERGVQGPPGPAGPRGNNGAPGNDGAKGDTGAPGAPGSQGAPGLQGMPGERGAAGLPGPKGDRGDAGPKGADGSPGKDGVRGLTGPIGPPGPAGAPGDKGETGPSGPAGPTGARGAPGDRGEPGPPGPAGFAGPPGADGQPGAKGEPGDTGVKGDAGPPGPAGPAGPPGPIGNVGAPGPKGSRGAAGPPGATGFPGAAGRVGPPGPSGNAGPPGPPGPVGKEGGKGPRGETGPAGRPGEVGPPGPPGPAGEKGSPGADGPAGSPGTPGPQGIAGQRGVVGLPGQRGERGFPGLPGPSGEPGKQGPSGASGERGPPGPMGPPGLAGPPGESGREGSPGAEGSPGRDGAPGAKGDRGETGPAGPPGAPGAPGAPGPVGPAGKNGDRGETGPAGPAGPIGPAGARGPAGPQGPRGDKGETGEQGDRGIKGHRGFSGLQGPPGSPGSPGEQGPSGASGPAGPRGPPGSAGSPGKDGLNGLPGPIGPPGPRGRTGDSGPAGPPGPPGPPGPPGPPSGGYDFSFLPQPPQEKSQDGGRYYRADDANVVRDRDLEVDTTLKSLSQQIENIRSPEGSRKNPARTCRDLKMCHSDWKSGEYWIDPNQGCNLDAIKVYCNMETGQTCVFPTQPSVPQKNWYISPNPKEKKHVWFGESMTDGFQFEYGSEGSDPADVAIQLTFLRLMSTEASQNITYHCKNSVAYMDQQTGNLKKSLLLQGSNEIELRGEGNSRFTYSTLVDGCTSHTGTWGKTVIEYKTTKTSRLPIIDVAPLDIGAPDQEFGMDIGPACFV
UniProt P02466: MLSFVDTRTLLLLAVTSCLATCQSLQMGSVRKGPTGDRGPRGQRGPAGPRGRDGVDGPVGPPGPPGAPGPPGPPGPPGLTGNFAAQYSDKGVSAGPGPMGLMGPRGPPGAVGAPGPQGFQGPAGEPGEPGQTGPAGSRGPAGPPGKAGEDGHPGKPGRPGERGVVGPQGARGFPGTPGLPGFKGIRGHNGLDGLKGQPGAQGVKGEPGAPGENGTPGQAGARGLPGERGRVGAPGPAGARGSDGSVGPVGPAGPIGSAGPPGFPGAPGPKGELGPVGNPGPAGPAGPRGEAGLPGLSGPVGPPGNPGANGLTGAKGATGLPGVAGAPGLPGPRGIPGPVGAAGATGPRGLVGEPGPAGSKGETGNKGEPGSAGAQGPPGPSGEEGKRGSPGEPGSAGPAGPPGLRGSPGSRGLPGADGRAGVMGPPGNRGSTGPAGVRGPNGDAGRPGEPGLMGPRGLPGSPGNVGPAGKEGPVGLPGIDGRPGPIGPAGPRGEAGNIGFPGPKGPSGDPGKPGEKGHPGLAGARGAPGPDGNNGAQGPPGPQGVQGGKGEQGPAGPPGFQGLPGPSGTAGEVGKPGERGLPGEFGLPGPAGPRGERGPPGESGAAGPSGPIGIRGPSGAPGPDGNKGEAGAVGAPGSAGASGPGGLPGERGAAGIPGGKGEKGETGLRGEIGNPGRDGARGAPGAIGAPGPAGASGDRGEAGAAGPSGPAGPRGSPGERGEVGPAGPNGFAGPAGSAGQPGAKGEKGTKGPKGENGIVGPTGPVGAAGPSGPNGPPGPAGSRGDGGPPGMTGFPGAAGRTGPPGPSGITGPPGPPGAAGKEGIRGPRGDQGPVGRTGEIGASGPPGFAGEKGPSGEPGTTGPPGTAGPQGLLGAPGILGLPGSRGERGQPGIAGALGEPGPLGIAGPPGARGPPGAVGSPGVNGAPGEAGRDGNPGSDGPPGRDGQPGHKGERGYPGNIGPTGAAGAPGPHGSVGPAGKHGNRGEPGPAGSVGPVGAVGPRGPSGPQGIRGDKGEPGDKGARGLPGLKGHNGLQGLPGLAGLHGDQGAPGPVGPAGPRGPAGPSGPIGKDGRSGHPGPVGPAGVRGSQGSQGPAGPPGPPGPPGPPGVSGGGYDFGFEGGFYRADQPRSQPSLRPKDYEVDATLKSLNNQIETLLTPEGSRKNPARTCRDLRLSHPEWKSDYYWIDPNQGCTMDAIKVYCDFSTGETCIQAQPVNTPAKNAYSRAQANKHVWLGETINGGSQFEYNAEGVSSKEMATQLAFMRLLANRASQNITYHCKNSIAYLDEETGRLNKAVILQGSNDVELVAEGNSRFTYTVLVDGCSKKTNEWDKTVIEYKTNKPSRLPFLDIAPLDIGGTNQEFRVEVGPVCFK
DDR1-Fc2 (Q08345, form named): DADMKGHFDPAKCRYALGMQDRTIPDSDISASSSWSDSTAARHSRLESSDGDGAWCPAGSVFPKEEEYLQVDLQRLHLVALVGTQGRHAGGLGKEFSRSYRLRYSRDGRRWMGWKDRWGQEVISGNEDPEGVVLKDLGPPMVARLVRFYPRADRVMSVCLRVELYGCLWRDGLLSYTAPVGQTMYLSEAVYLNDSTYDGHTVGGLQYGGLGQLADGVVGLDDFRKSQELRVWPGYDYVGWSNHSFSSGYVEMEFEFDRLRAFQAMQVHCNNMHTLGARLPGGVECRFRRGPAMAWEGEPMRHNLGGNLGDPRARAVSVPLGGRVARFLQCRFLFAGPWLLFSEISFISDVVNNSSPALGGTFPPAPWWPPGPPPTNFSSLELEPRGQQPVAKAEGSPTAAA

The assay has as its target collagen I (acid-soluble from rat tail) (rat) (UniProt P02454+P02466). In words: ELISA; data not shown; new DDR-Fc proteins on collagens; both purified. On the technique in general: An ELISA detects its analyte on a solid surface through an enzyme-linked reagent.

Results are given in words; binding and its absence hold for the method and conditions named. Some binding calls cover weakened binding; strength is not graded here.

For the substance “DDR1-Fc2 (from UniProt Q08345 19-416) (Fc fusion)”, the binding result is recorded as “binds”.
